Publication PMC12260538
No constants are given. Whether binding was seen depends on the method and setting. Binding seen in cells or lysates may run through a third protein. Some entries that bind do so weakly or less than the wild type.

Biological target: T1, STING (stimulator of interferon genes) (mouse (endogenous in lung tissue)) (UniProt Q3TBT3)
T1 sequence: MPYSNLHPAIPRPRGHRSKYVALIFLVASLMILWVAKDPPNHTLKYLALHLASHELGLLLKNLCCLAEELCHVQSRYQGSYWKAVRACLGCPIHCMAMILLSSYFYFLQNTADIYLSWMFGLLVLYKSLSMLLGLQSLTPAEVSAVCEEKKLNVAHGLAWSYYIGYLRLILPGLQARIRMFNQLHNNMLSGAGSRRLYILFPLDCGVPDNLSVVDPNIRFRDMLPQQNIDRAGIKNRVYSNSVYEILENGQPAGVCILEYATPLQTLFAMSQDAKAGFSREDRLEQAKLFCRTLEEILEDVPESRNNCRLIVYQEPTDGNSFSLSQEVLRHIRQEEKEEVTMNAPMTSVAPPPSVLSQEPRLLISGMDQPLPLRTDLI
Assay: co-IP; lung tissue lysates of mice of the Control and PR8 groups; mild lysis buffer (20 mM Tris/HCl pH 7.6, 150 mM NaCl, 20 mM KCl, 1.5 mM MgCl2, 0.5% NP-40); anti-STING, anti-GSDMD or normal IgG on Protein A/G beads, overnight at 4°C; washed with TBST 0.1% Tween 20; immunoblot

- binding: binds
B1: gasdermin D (GSDMD) (protein, UniProt Q9D8T2 1-487)
chain: MPSAFEKVVKNVIKEVSGSRGDLIPVDSLRNSTSFRPYCLLNRKFSSSRFWKPRYSCVNLSIKDILEPSAPEPEPECFGSFKVSDVVDGNIQGRVMLSGMGEGKISGGAAVSDSSSASMNVCILRVTQKTWETMQHERHLQQPENKILQQLRSRGDDLFVVTEVLQTKEEVQITEVHSQEGSGQFTLPGALCLKGEGKGHQSRKKMVTIPAGSILAFRVAQLLIGSKWDILLVSDEKQRTFEPSSGDRKAVGQRHHGLNVLAALCSIGKQLSLLSDGIDEEELIEAADFQGLYAEVKACSSELESLEMELRQQILVNIGKILQDQPSMEALEASLGQGLCSGGQVEPLDGPAGCILECLVLDSGELVPELAAPIFYLLGALAVLSETQQQLLAKALETTVLSKQLELVKHVLEQSTPWQEQSSVSLPTVLLGDCWDEKNPTWVLLEECGLRLQVESPQVHWEPTSLIPTSALYASLFLLSSLGQKPC
